# Whole data set: some 33,000 sequences, median “E-score (-0.5 to 0.5)” near -8e-05, cut for the highest 2% near 0.23. Some of the results follow.
# Target: T1, Nrg2 (UniProt P38082)
# T1 sequence: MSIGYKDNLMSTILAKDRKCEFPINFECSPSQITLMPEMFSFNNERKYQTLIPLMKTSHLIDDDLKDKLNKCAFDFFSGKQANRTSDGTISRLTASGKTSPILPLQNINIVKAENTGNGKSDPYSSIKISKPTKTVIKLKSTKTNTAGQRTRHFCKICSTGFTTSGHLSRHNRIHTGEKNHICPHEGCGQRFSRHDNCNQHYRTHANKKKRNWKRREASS
# Experiment: PBM E-score (8-mer binding enrichment) (E-score (-0.5 to 0.5)); higher = stronger / more preferred TF binding
# Conditions: protein concentration: 100 nM; construct: GST-full length
# Summary of the method: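 Universal all-10-mer Agilent arrays, fresh or stripped once, were converted to double-stranded form by primer extension. GST-tagged yeast transcription factors from PURExpress in vitro transcription/translation, full-length or DNA-binding domain only, were applied at about 100-200 nM and detected with fluorescent anti-GST. After masliner normalisation, the Universal PBM Analysis Suite scored each ungapped eight-base word together with its reverse complement by E-score.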
row,Sequence,PBM E-score
1,AACTCGAG,0.194
2,GAAGGGAA,-0.0367
3,GAATTTGA,0.104
4,GAGAATCC,0.106
5,TAAGACTA,-0.0747
6,CGGAGAAC,-0.106
7,CAGGGAAG,0.0197
8,TACGCTCA,0.1
9,GTGATAAA,0.00436
10,GCGTCCAA,-0.128
11,CTTCAATA,0.0194
12,TAGCACAA,0.00877
13,TGGCGAAA,-0.0493
14,GTACAGTA,0.0873
15,AACAGTGA,-0.0365
16,TTACGCAA,0.0695
17,CAGAAAGG,0.0423
18,CCCCCGCA,-0.229
19,AGTCACAG,0.00296
20,AACGCATA,-0.00337
21,CTGTGTTC,0.107
22,ACCGACGG,-0.0684
23,CGCAATAG,0.124
24,CGATGGCA,0.0295
25,TCCGAAGA,0.0947

row,Sequence,PBM E-score
1,CAATACCC,0.202
2,AATTGTAA,-0.226
3,AGCCCAGC,-0.152
4,ACAGGGAA,0.0579
5,GTCCACGA,-0.00569
6,AGCTAATC,0.104
7,TAGCCAGA,-0.137
8,AGAGTCTG,-0.194
9,ACGCTCGC,0.0306
10,GGAGCTAC,-0.224
11,GAGATCTA,0.048
12,CATATGAA,0.174
13,GTACTCGA,-0.0513
14,TGTTACAA,0.113
15,AACTTGTA,-0.00218
16,CCCAAGCG,0.0241
17,GCCCACCA,-0.15
18,CTTTGGTA,-0.174
19,ATTAACAC,0.246
20,AGGAACGG,0.0417
21,CATAACAG,0.0146
22,CTTAAAGA,-0.144
23,TAGACGAA,-0.102
24,AGAGTGCA,-0.0559
25,GAGTGTCA,0.165

row,Sequence,PBM E-score
1,AAGAACCC,0.0457
2,CCCAATAC,-0.0177
3,ACCATAAA,0.0648
4,ATTTACCC,0.169
5,GGAGTGTA,-0.262
6,CTGGTATA,-0.1
7,TATTGCGA,0.215
8,ACCGAGTA,-0.0179
9,GGCTTATA,-0.151
10,TCCCGCCA,-0.06
11,CTATTTAC,-0.00332
12,AATCACGC,0.00595
13,ATTGGGCG,-0.0658
14,GAGCTGAA,0.0293
15,ATATATTG,-0.0404
16,CGAGAGAC,0.0218
17,CAATCCGC,-0.0316
18,AATGCAAG,0.0402
19,CGTCTCAC,-0.0603
20,CGTAGGTC,-0.325
21,TGGTAAAA,-0.0794
22,ACTAAGAT,0.177
23,AACATCAA,0.204
24,GCGAGTGA,0.0688
25,ACTTCTCC,-0.0928

row,Sequence,PBM E-score
1,ATAGAGGG,0.0622
2,ATACCTAT,0.151
3,ATGTTGCC,-0.0261
4,GCGTTCAC,-0.181
5,CAAGCCTG,-0.166
6,ACTACAGT,0.0385
7,AAATGCGT,0.107
8,AGCGGCCC,-0.265
9,TCATGTAA,-0.142
10,CATAGACA,-0.0465
11,ATTTGTAC,0.0588
12,GAGTCTGA,-0.0871
13,CATTCCTC,0.0295
14,GACCCTTA,0.321
15,AAGATTAA,0.0915
16,GAAACCTA,-0.141
17,AAGCTACA,0.00648
18,CATCACGC,0.0179
19,ATGCTTAA,-0.069
20,AGCACTTA,-0.0801
21,ATTAGGTC,0.216
22,GAATTAAA,0.165
23,ACCGCCGG,-0.0836
24,GTTGTTCA,-0.00763
25,TAGTACTA,0.121

# Part of the list above, bar-delimited:
row | Sequence | PBM E-score
5 | CAAGCCTG | -0.166
6 | ACTACAGT | 0.0385
7 | AAATGCGT | 0.107

# The list goes on:

row,Sequence,PBM E-score
1,CTACGTTA,-0.0115
2,GGTCTCAA,0.0103
3,ATTATTAG,-0.00975
4,CCCAACAA,0.0468
5,CGACACAG,-0.0558
6,AGCATGCT,-0.064
7,CCTAAACC,-0.0707
8,CTAGATCC,0.127
9,ACGGTGAA,0.0949
10,GTCGTCAC,-0.0906
11,GCCTGTGA,-0.0742
12,CAAACTTA,0.0571
13,ATTTTGGG,-0.102
14,CACATACA,-0.0126
15,GCTCTGCA,-0.25
16,AAGCTTAA,0.107
17,CACCACGG,-0.325
18,GGTCGTCA,-0.0631
19,AACTACCA,-0.0713
20,CTAAACCC,-0.0134
21,TTCTCAAA,0.211
22,CCAGTTTC,0.0541
23,CACCCAGG,-0.131
24,TCCAAGAA,0.0177
25,AAGCTAAG,-0.319

# Not a retest: entries from further up.
row,Sequence,PBM E-score
17,CACCACGG,-0.325
18,GGTCGTCA,-0.0631

# (list continues)

row,Sequence,PBM E-score
1,CCACGGAG,0.0299
2,ATCTCCGC,-0.0353
3,GGTATGTA,-0.0642
4,CAAGAACA,0.007
5,ACCCATCT,0.0368
6,CCACTTGC,0.0133
7,CTCCGAAA,-0.0954
8,ACGAGGGA,0.0972
9,CGCAAAGC,0.0242
10,GAGATGGA,-0.0519
11,CGTCGGAA,-0.00762
12,AGGCTTAA,-0.1
13,AAATGAAA,0.182
14,CGACTCGA,-0.112
15,AGCCCATA,0.0496
16,GACTGTGA,0.03
17,AGCTCTTA,-0.114
18,GGCCGCCA,0.0869
19,CCATCTCC,0.00532
20,CTAGATGC,0.0311
21,AGGATTCC,-0.222
22,AGGAACCT,0.0863
23,ACTCGCTC,-0.0241
24,ATAGGCAA,0.0271
25,ATGTTATA,-0.0743

row,Sequence,PBM E-score
1,CTCAGGAA,-0.0145
2,GATTAGGA,-0.0684
3,TTAAGCAA,0.0236
4,CTGAGACA,0.0347
5,AGTTTAAG,-0.125
6,ATCCAGTG,0.191
7,CCGCGTTA,0.151
8,ACGTCGGG,-0.115
9,GCCGGACA,0.0968
10,CTCCTGGA,-0.239
11,GCGCTCGA,0.186
12,TAATTCTA,0.0612
13,AGATAGTC,-0.0726
14,ATTCATCC,-0.0209
15,AAAAGGTT,-0.0724
16,CAGTGATC,0.0931
17,CCATAATA,0.201
18,CCCTGAGG,0.236
19,TCTAGAGA,-0.268
20,CGTATTAG,0.0345
21,ATGTCGGA,-0.0972
22,GAATTACA,0.0268

# From the supplement of paper PMC3334620
